{
  "source": "PubChem BioAssay AID256",
  "about": "(DTP/NCI, 2004)",
  "test_system": "CD2F1 mice, L1210 leukemia ip, survival T/C",
  "test": "NCI In Vivo Anticancer Drug Screen. Data for tumor model L1210 Leukemia (intraperitoneal) in CD2F1 (CDF1) mice",
  "details": "higher T/C = longer survival",
  "in_short": "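Each value reflects a quotient of treated over vehicle control outcomes in mice with a transplanted tumor.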",
  "key": {"[1]": {"details": "T/C endpoint: mean survival time, dose: 200.0 mg/kg/injection, schedule: Q01DX009 (ip), vehicle: saline with Tween-80"}, "[2]": {"details": "T/C endpoint: mean survival time, dose: 400.0 mg/kg/injection, schedule: Q01DX009 (ip), vehicle: saline with Tween-80"}, "[3]": {"details": "T/C endpoint: mean survival time, dose: 100.0 mg/kg/injection, schedule: Q01DX009 (ip), vehicle: saline with Tween-80"}, "[4]": {"details": "T/C endpoint: mean survival time, dose: 200.0 mg/kg/injection, schedule: Q04DX003 (ip), vehicle: saline with Tween-80"}, "[5]": {"details": "T/C endpoint: mean survival time, dose: 50.0 mg/kg/injection, schedule: Q01DX009 (ip), vehicle: saline with Tween-80"}, "[6]": {"details": "T/C endpoint: mean survival time, dose: 300.0 mg/kg/injection, schedule: Q01DX001 (ip), vehicle: saline"}, "[7]": {"details": "T/C endpoint: mean survival time, dose: 150.0 mg/kg/injection, schedule: Q01DX001 (ip), vehicle: saline"}, "[8]": {"details": "T/C endpoint: mean survival time, dose: 400.0 mg/kg/injection, schedule: Q04DX003 (ip), vehicle: saline with Tween-80"}},
  "note": "The list shows only some results of the screen, not a fair sample: it gathers tests that were run many times, whatever their T/C, doses with no T/C, and many T/C values between a quarter and a half above the control. Further doses and runs are listed elsewhere. T/C: endpoint of the treated group in % of that of the vehicle group. Some entries give survivors of the animals treated and no T/C: the source holds a T/C of zero for them, seemingly a mark for toxic or unscored doses. Some survivor counts are full or nearly so, which does not show that the dose was tolerated: survival well below the control is almost never listed, so the zero probably covers shortened survival too. Survivors were counted at the toxicity check, usually on the fifth day, unless a day is given; later deaths do not show. Schedules are NCI's codes, taken here to give the interval after Q, in days (D) or hours (H), and the number of doses after X. Some entries were tested several times; the values are given in rising order. Some structures stand for samples that the source files as different forms (salt, stereo form or complex); doses refer to the form tested. Where survival is the endpoint, this PubChem deposit counts one and a half times the control or more as active, and values a quarter to a half above the control carry no call in these data; other NCI protocols may use other cut-offs. Some T/C values carry the count of animals alive at the toxicity check (mostly the fifth day); where none is given, no animal had died by that day.",
  "data": [
    {"smiles": "O=C1C=CC(=O)O1", "note": "(tested in a mixture with another compound)", "values": [
      {"measurement": "survivor count", "setting": "T/C endpoint: mean survival time, dose: 6.25 mg/kg/injection, schedule: Q01DX001 (ip), vehicle: other", "result": "1 of 6"},
      {"measurement": "T/C", "setting": "T/C endpoint: mean survival time, dose: 100.0 mg/kg/injection, schedule: Q01DX001 (ip), vehicle: saline", "result": "129 % of control"},
      {"measurement": "survivor count", "setting": "T/C endpoint: mean survival time, dose: 600.0 mg/kg/injection, schedule: Q01DX001 (ip), vehicle: saline", "result": "3 of 6"},
      {"measurement": "T/C", "setting": "T/C endpoint: mean survival time, dose: 800.0 mg/kg/injection, schedule: Q01DX001 (ip), vehicle: saline", "result": "129 % of control [5 of 6 alive]"},
      {"measurement": "T/C", "setting": "T/C endpoint: mean survival time, dose: 1200.0 mg/kg/injection, schedule: Q01DX001 (ip), vehicle: saline", "result": "134 % of control"}
    ]},
    {"smiles": "C#CC(CC(C)CC(C)(C)C)N(C)C", "note": "(stereo not drawn)", "values": [
      {"measurement": "survivor count", "setting": "[1]", "result": "3 of 6"},
      {"measurement": "survivor count", "setting": "[2]", "result": "0 of 6"}
    ]},
    {"smiles": "CCN(CC)CCCC(C)Nc1ccnc2cc(Cl)ccc12", "note": "(stereo not drawn)", "values": [
      {"measurement": "survivor count", "setting": "T/C endpoint: mean survival time, dose: 200.0 mg/kg/injection, schedule: Q04DX002 (ip), vehicle: saline", "result": "0 of 3"},
      {"measurement": "survivor count", "setting": "T/C endpoint: mean survival time, dose: 400.0 mg/kg/injection, schedule: Q04DX002 (ip), vehicle: saline", "result": "0 of 3"}
    ]},
    {"smiles": "CCC1=[N+](C)c2ccccc2C1(C)C", "values": [
      {"measurement": "survivor count", "setting": "T/C endpoint: mean survival time, dose: 200.0 mg/kg/injection, schedule: Q04DX003 (ip), vehicle: saline", "result": "0 of 3"},
      {"measurement": "survivor count", "setting": "T/C endpoint: mean survival time, dose: 400.0 mg/kg/injection, schedule: Q04DX003 (ip), vehicle: saline", "result": "0 of 3"}
    ]},
    {"smiles": "O=C1c2ccccc2C(Cl)=C(Cl)C1(Cl)Cl", "values": [
      {"measurement": "survivor count", "setting": "[3]", "result": "3 of 6"},
      {"measurement": "survivor count", "setting": "[1]", "result": "0 of 6"},
      {"measurement": "survivor count", "setting": "[4]", "result": "2 of 6"},
      {"measurement": "survivor count", "setting": "[2]", "result": "1 of 6"}
    ]},
    {"smiles": "O/N=C/c1ccccc1O.O/N=C/c1ccccc1O.[Cu]", "values": [
      {"measurement": "survivor count", "setting": "[5]", "result": "5 of 6 and 10 of 10"}
    ]},
    {"smiles": "Cn1cccc1-c1cccnc1", "values": [
      {"measurement": "survivor count", "setting": "[6]", "result": "1 of 6"}
    ]},
    {"smiles": "CCCCCCCCCCCCCCCCCC[N+]1(Cc2ccccc2)CCOCC1", "values": [
      {"measurement": "survivor count", "setting": "[1]", "result": "5 of 6"},
      {"measurement": "survivor count", "setting": "[2]", "result": "0 of 6"}
    ]},
    {"smiles": "COc1ccc([I+]c2cccc(Cl)c2)cc1Cl", "values": [
      {"measurement": "survivor count", "setting": "T/C endpoint: median survival time, dose: 50.0 mg/kg/injection, schedule: Q01DX009 (ip), vehicle: saline with Tween-80", "result": "1 of 6"},
      {"measurement": "survivor count", "setting": "T/C endpoint: median survival time, dose: 100.0 mg/kg/injection, schedule: Q01DX009 (ip), vehicle: saline with Tween-80", "result": "0 of 6"}
    ]},
    {"smiles": "C=C1C(=O)OC2CCN3CC=C(COC(=O)C(C)(O)C4(CO4)C1C)C23", "note": "(stereo not drawn)", "values": [
      {"measurement": "survivor count", "setting": "[7]", "result": "1 of 6"},
      {"measurement": "survivor count", "setting": "[6]", "result": "0 of 6"}
    ]},
    {"smiles": "COc1cc(OC)c(NC(=O)Nc2ccc(NC(C)=O)cc2)cc1Cl", "values": [
      {"measurement": "survivor count", "setting": "[5]", "result": "3 of 3"},
      {"measurement": "survivor count", "setting": "[3]", "result": "3 of 3"},
      {"measurement": "survivor count", "setting": "[1]", "result": "3 of 3"}
    ]},
    {"smiles": "CCC(=O)c1ccc(NC(=O)Nc2ncccn2)cc1", "values": [
      {"measurement": "survivor count", "setting": "T/C endpoint: mean survival time, dose: 200.0 mg/kg/injection, schedule: Q01DX009 (ip), vehicle: Klucel (hydroxypropylcellulose) (HPC)", "result": "2 of 3"}
    ]},
    {"smiles": "COC(=O)C1C2CCC(C2)C1C", "note": "(stereo not drawn)", "values": [
      {"measurement": "survivor count", "setting": "[4]", "result": "6 of 6"},
      {"measurement": "survivor count", "setting": "[8]", "result": "2 of 6"}
    ]},
    {"smiles": "Nc1ccc(Cl)cc1N", "values": [
      {"measurement": "T/C", "setting": "T/C endpoint: mean survival time, dose: 200.0 mg/kg/injection, schedule: Q01DX009 (ip), vehicle: other", "result": "127 % of control"}
    ]},
    {"smiles": "OCCN(CCO)c1ccc(O)cc1", "values": [
      {"measurement": "survivor count", "setting": "T/C endpoint: mean survival time, dose: 75.0 mg/kg/injection, schedule: Q01DX001 (ip), vehicle: saline", "result": "2 of 6"},
      {"measurement": "survivor count", "setting": "T/C endpoint: mean survival time, dose: 80.0 mg/kg/injection, schedule: Q01DX001 (ip), vehicle: saline", "result": "3 of 6"},
      {"measurement": "survivor count", "setting": "[7]", "result": "2 of 6"},
      {"measurement": "survivor count", "setting": "[6]", "result": "0 of 6"}
    ]},
    {"smiles": "CCC[n+]1c(C)oc2ccc(-c3ccccc3)cc21", "values": [
      {"measurement": "survivor count", "setting": "[8]", "result": "3 of 6"}
    ]},
    {"smiles": "Cn1nnc2c(C(N)=O)ncn2c1=O", "values": [
      {"measurement": "T/C", "setting": "T/C endpoint: median survival time, dose: 25.0 mg/kg/injection, schedule: Q01DX009 (ip), vehicle: saline with Tween-80", "result": "139 % of control"},
      {"measurement": "survivor count", "setting": "T/C endpoint: median survival time, dose: 400.0 mg/kg/injection, schedule: Q01DX009 (ip), vehicle: saline with Tween-80", "result": "4 of 6"}
    ]},
    {"smiles": "O=C1c2ccccc2C(=O)c2c(NCCNCCNCCO)ccc(NCCNCCNCCO)c21", "values": [
      {"measurement": "survivor count", "setting": "T/C endpoint: mean survival time, dose: 128.0 mg/kg/injection, schedule: Q01DX009 (ip), vehicle: acid diluted with saline", "result": "3 of 6"}
    ]},
    {"smiles": "C1=NC(c2ccccn2)=NNC(c2ccccn2)=C1c1ccccc1", "values": [
      {"measurement": "survivor count", "setting": "T/C endpoint: mean survival time, dose: 400.0 mg/kg/injection, schedule: Q01DX009 (ip), vehicle: Klucel (hydroxypropylcellulose) (HPC)", "result": "1 of 6"}
    ]},
    {"smiles": "CC(=O)OC1(/N=[N+](/C)[O-])CCCC1", "values": [
      {"measurement": "T/C", "setting": "T/C endpoint: mean survival time, dose: 50.0 mg/kg/injection, schedule: Q01DX001 (ip), vehicle: saline with Tween-80", "result": "130 % of control"},
      {"measurement": "T/C", "setting": "T/C endpoint: mean survival time, dose: 100.0 mg/kg/injection, schedule: Q01DX001 (ip), vehicle: saline with Tween-80", "result": "148 % of control"},
      {"measurement": "survivor count", "setting": "T/C endpoint: mean survival time, dose: 200.0 mg/kg/injection, schedule: Q01DX001 (ip), vehicle: saline with Tween-80", "result": "5 of 6"},
      {"measurement": "survivor count", "setting": "[4]", "result": "5 of 6"}
    ]}
  ]
}
